Experimental data taken from paper PMC12565409, “Computational–Experimental Identification of Palindromic Motifs Bound by Bacterial XRE Family Transcriptional Regulators”.

Assays:
Experiment in all cases: EMSA
[1] = test system: Motif_15 protein L0F81_11155; conditions: EMSA: 20 mM Tris-HCl pH 7.5, 250 mM NaCl, 5% glycerol, 2 uL of 1 uM FAM-DNA (labeled:unlabeled strand 1:4) + 2 uL of ~10 uM protein in 20 uL, 37 C, 30 min, recombinant protein, protein details: His (pET-28a, Ni column), label: 5'FAM on strand 1
[2] = test system: Motif_24 protein G4P54_09295; conditions: EMSA: 20 mM Tris-HCl pH 7.5, 250 mM NaCl, 5% glycerol, 2 uL of 1 uM FAM-DNA (labeled:unlabeled strand 1:4) + 2 uL of ~10 uM protein in 20 uL, 37 C, 30 min, recombinant protein, protein details: His (pET-28a, Ni column), label: 5'FAM on strand 1
[3] = test system: Motif_49 protein Dd1591_4245; conditions: EMSA: 20 mM Tris-HCl pH 7.5, 250 mM NaCl, 5% glycerol; 2 uL of 1 uM FAM-DNA (labeled:unlabeled strand 1:4) + 2 uL of ~10 uM protein in 20 uL; 37 C, 30 min; recombinant protein; protein details: His (pET-28a, Ni column); label: 5'FAM on strand 1
[4] = test system: Motif_210 protein C3L50_11205; conditions: EMSA: 20 mM Tris-HCl pH 7.5, 250 mM NaCl, 5% glycerol, 2 uL of 1 uM FAM-DNA (labeled:unlabeled strand 1:4) + 2 uL of ~10 uM protein in 20 uL, 37 C, 30 min, recombinant protein, protein details: His (pET-28a, Ni column), label: 5'FAM on strand 1
[5] = test system: Motif_2 protein AR1Y2_1945; conditions: EMSA: 20 mM Tris-HCl pH 7.5, 250 mM NaCl, 5% glycerol; 2 uL of 1 uM FAM-DNA (labeled:unlabeled strand 1:4) + 2 uL of ~10 uM protein in 20 uL; 37 C, 30 min; recombinant protein; protein details: His (pET-28a, Ni column); label: 5'FAM on strand 1
[6] = test system: Motif_177 protein G6048_13090; conditions: EMSA: 20 mM Tris-HCl pH 7.5, 250 mM NaCl, 5% glycerol, 2 uL of 1 uM FAM-DNA (labeled:unlabeled strand 1:4) + 2 uL of ~10 uM protein in 20 uL, 37 C, 30 min, recombinant protein, protein details: His (pET-28a, Ni column), label: 5'FAM on strand 1
[7] = test system: Motif_79 protein CP49_24200; conditions: EMSA: 20 mM Tris-HCl pH 7.5, 250 mM NaCl, 5% glycerol, 2 uL of 1 uM FAM-DNA (labeled:unlabeled strand 1:4) + 2 uL of ~10 uM protein in 20 uL, 37 C, 30 min, recombinant protein, protein details: His (pET-28a, Ni column), label: 5'FAM on strand 1
[8] = molecular target: T1, Motif_38 protein HW450_07255 (UniProt A0A7G5FC37); conditions: weakened or abolished; EMSA: 20 mM Tris-HCl pH 7.5, 250 mM NaCl, 5% glycerol; 2 uL of 1 uM FAM-DNA (labeled:unlabeled strand 1:4) + 2 uL of ~10 uM protein in 20 uL; 37 C, 30 min; recombinant protein; protein details: His (pET-28a, Ni column); label: 5'FAM on strand 1
T1 sequence (looked up, limits assumed): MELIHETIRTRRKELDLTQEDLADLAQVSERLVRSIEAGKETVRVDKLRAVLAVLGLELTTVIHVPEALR

[9] = test system: Motif_102 protein Mesau_05682; conditions: EMSA: 20 mM Tris-HCl pH 7.5, 250 mM NaCl, 5% glycerol, 2 uL of 1 uM FAM-DNA (labeled:unlabeled strand 1:4) + 2 uL of ~10 uM protein in 20 uL, 37 C, 30 min, recombinant protein, protein details: His (pET-28a, Ni column), label: 5'FAM on strand 1
[10] = test system: Motif_209 protein DRF58_00335; conditions: EMSA: 20 mM Tris-HCl pH 7.5, 250 mM NaCl, 5% glycerol, 2 uL of 1 uM FAM-DNA (labeled:unlabeled strand 1:4) + 2 uL of ~10 uM protein in 20 uL, 37 C, 30 min, recombinant protein, protein details: His (pET-28a, Ni column), label: 5'FAM on strand 1

“ACTCTCTACGCGTTTCACGCGTACCCGGT (double strand) [15-mut1]”: binds more weakly ([1]; weakened or abolished).
“TTATAATATAAAGTACACTTTATGTTAAGG (double strand) [Mot24-mut1]”: binds more weakly ([2]; weakened or abolished).
“TTCTCTTACCCGCTATAGGGGATAAATGTT (double strand) [Mot49-WT]”: binds [3]; binds more weakly [4].
“GCAAATAGTGCAGAGGTCTGCACTGACATG (double strand) [Mot177-WT]”: no binding [5]; binds [6].
“TCGAAATGATCTGTTTACGTATCACCCACT (double strand) [Mot79-WT]”: no binding [5]; binds [2]; binds [7].
“TCTAAATTACTGCTATAGCAGTAAAAAAAT (double strand) [Mot210-WT]”: no binding [5]; binds more weakly [3]; binds [4].
“AATAAATCGACACAATCGTGTCGATTTTGG (double strand) [Mot38-mut1]”: binds more weakly [8].
“ATGAAATATAGTCTTCGTGCTATATAACGC (double strand) [Mot102-mut1]”: binds more weakly ([9]; weakened or abolished).
“TCACAATTAGCGAACGTTCGCTAAATTTTT (double strand) [Mot209-WT]”: no binding [5]; binds [10].
“GCAAATAGTACAGAGGTCTGTACTGACATG (double strand) [Mot177-mut1]”: binds more weakly ([6]; weakened or abolished).
“TCGAAATAATCTGTTTACGTATTACCCACT (double strand) [Mot79-mut1]”: binds more weakly ([7]; weakened or abolished).
“AATAAATCGGCACAATCGTGCCGATTTTGG (double strand) [Mot38-WT]”: no binding [5]; binds [4].
“TTATAATGTAAAGTACACTTTACGTTAAGG (double strand) [Mot24-WT]”: no binding [5]; binds [2].
“TCACAATTAGCAAACGTTTGCTAAATTTTT (double strand) [Mot209-mut1]”: binds more weakly ([10]; weakened or abolished).
“CGTAAACTCTACGGAGCGTTGATTGTGTT (double strand) [Mot2-WT]”: no binding [5].
“ATGAAATGTAGTCTTCGTGCTACATAACGC (double strand) [Mot102-WT]”: no binding [5]; binds [2]; binds [9]. “ATGAAATGTAGTCTTCGTGCTACATAACGC (double strand) [Mot102-WT]”: binds [4].
“ACTCTCTATGCGTTTCACGCATACCCGGT (double strand) [15-WT]”: no binding [5]; binds [1].
“TCTAAATTATTGCTATAGCAATAAAAAAAT (double strand) [Mot210-mut1]”: binds more weakly ([4]; weakened or abolished).

Construct, isoform or probe ends are uncertain for at least one entry. For some of these results: Negatives hold for the conditions tested. For some of these results: Weaker means in comparison with the reference protein, sequence or condition of that experiment. For some of these results: At least one verdict was read from the data and is not stated in words by the source. For some of these results: Protein sequences can lack the tags named with them.
